Tested on: non-tumorigenic human lung fibroblast MRC-5 cell line
Experiment: Normal cell cytotoxicity, MRC-5
Type: cell-based
Conditions: IC50 in normal lung cell (MRC-5)/IC50 in cancerous lung cells A-549
Description: To test the safety of the newly synthesised compounds and their selectivity towards cancer cells, their cytotoxic activity was tested on non-tumorigenic human lung fibroblast MRC-5 cell line.

| Structure (SMILES) | SI (safety index) |
| --- | --- |
| O=C(NNC(=S)Nc1ccc(F)cc1)c1oc2ccccc2c1CN1CCN(c2ccccc2)CC1 [Compound 9e] | 9.92 |
| CC(=NNC(=O)c1oc2ccccc2c1CN1CCN(c2ccccc2)CC1)c1ccccc1 [Compound 15a] | 4.59 |
| O=C(NNC(=S)Nc1cccc(F)c1)c1oc2ccccc2c1CN1CCN(c2ccccc2)CC1 [Compound 9d] | 4.11 |
| O=C(NNC(=S)Nc1ccc(Cl)cc1)c1oc2ccccc2c1CN1CCN(c2ccccc2)CC1 [Compound 9g] | 3.09 |
| COc1ccc(C=NNC(=O)c2oc3ccccc3c2CN2CCN(c3ccccc3)CC2)cc1 [Compound 13c] | 8.41 |
| COc1ccc(NC(=S)NNC(=O)c2oc3ccccc3c2CN2CCN(c3ccccc3)CC2)cc1 [Compound 9c] | 3.62 |
| COc1ccc(C(C)=NNC(=O)c2oc3ccccc3c2CN2CCN(c3ccccc3)CC2)cc1 [Compound 15b] | 5.62 |
| O=C(NN=C1CCCc2ccccc21)c1oc2ccccc2c1CN1CCN(c2ccccc2)CC1 [Compound 17] | 4.82 |
| COc1cccc(C=NNC(=O)c2oc3ccccc3c2CN2CCN(c3ccccc3)CC2)c1 [Compound 13b] | 10.58 |
| O=C(NNC(=S)Nc1cccc(Cl)c1)c1oc2ccccc2c1CN1CCN(c2ccccc2)CC1 [Compound 9f] | 3.08 |
| O=C(NNC(=S)Nc1cccc(C(F)(F)F)c1)c1oc2ccccc2c1CN1CCN(c2ccccc2)CC1 [Compound 9h] | 16.20 |
| O=C(NN=Cc1ccccc1)c1oc2ccccc2c1CN1CCN(c2ccccc2)CC1 [Compound 13a] | >4.60 |
| CC(=O)c1ccc(NC(=S)NNC(=O)c2oc3ccccc3c2CN2CCN(c3ccccc3)CC2)cc1 [Compound 9i] | 4.86 |
| COc1cccc(NC(=S)NNC(=O)c2oc3ccccc3c2CN2CCN(c3ccccc3)CC2)c1 [Compound 9b] | 3.59 |
| O=C(NNC(=S)Nc1ccccc1)c1oc2ccccc2c1CN1CCN(c2ccccc2)CC1 [Compound 9a] | 4.75 |

From article PMC9126595, “Identification of 3-(piperazinylmethyl)benzofuran derivatives as novel type II CDK2 inhibitors: design, synthesis, biological evaluation, and in silico insights” (Journal of Enzyme Inhibition and Medicinal Chemistry, 2022)
